Experimental data: PubChem BioAssay AID1671195 (Yale University, 2021)
Test: 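Regulators of LDL receptor activity judged by labelled LDL uptake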 (primary screen). Cells: human Huh7 hepatoma cells. Knock-down reagent: siRNA pool against human genes, 18 nM. Duration: about 2 to 2.5 days of knockdown, then 8 h LDL uptake. Conditions: DiI-labelled LDL at 30 µg/ml for 8 h, in lipoprotein-deficient serum medium. Measurement: 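Per-cell DiI-LDL intensity by automated imaging; well means scaled to the plate median and given as a robust z-score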. Direction: robust z-score: higher = more LDL uptake after knockdown. Rule for the call: 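a gene counts as active if at least two replicate z-scores exceed ±2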.
The deposit covers about 22,000 reagents; below is a random part of them. About 1,510 of all reagents (6.9%) count as active. 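Active includes knockdowns raising or lowering LDL uptake; positive z-scores mean more uptake, negative mean less.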 A number with no mark means an inactive call.

no.	target gene	robust z-score, replicate 1	robust z-score, replicate 2	robust z-score, replicate 3
1	EEF1B2 (eukaryotic translation elongation factor 1 beta 2)	-1.18	-1.06	-0.832
2	LINC00545 (long intergenic non-protein coding RNA 545)	2.05	1.88	1.6
3	OR5W2 (olfactory receptor family 5 subfamily W member 2)	1.36	1.32	1.2
4	NBEAL2 (neurobeachin like 2)	-1.16	-0.0494	-0.933
5	IL17RC (interleukin 17 receptor C)	1.06	1.7	1.11
6	RAB3C (RAB3C, member RAS oncogene family)	0.502	0.059	0.125
7	ZNF75D (zinc finger protein 75D)	0.901	0.861	0.514
8	IMPG1 (interphotoreceptor matrix proteoglycan 1)	0.263	0.265	0.494
9	CCDC8 (coiled-coil domain containing 8 subunit of 3M complex)	0.394	-0.489	0.679
10	UTRN (utrophin)	-0.0163	-1.04	0.553
11	LOC392473 (retired record)	0.23	0.489	1.1
12	MYL6 (myosin light chain 6)	2.27 (active)	3.08	0.892
13	ZIC5 (Zic family zinc finger 5)	-1.54	-1.72	-1.39
14	ASTE1 (asteroid structure-specific endonuclease 1)	0.543	0.673	0.211
15	SYT8 (synaptotagmin 8)	-1.42	-0.921	-1.15
16	NOL7 (nucleolar protein 7)	-0.52	0.34	0.461
17	IGHV3OR16-8 (immunoglobulin heavy variable 3/OR16-8 (non-functional))	1.62 (active)	2.75	2.78
18	SQOR (sulfide quinone oxidoreductase)	0.377	-0.771	0.238
19	PSMA3 (proteasome 20S subunit alpha 3)	-0.936	-0.623	-0.659
20	LOC440057 (retired record)	-0.954	-0.755	-0.91
21	STX7 (syntaxin 7)	-1.12	-1.16	-0.883
22	LOC440616 (retired record)	-2.4 (active)	-1.99	-2.06
23	FAM3D (FAM3 metabolism regulating signaling molecule D)	0.163	0.101	0.426
24	BAZ1A (bromodomain adjacent to zinc finger domain 1A)	-0.612	1.6	-0.345

2 entries already listed, sorted by “robust z-score, replicate 3”, high to low.
target gene	robust z-score, replicate 1	robust z-score, replicate 2	robust z-score, replicate 3
SQOR (sulfide quinone oxidoreductase)	0.377	-0.771	0.238
PSMA3 (proteasome 20S subunit alpha 3)	-0.936	-0.623	-0.659

Additional reagents follow.
no.	target gene	robust z-score, replicate 1	robust z-score, replicate 2	robust z-score, replicate 3
25	ZNF23 (zinc finger protein 23)	0.0475	0.251	0.171
26	HELQ (helicase, POLQ like)	0.331	1.36	0.502
27	KCNS1	0.013	0.765	1.55
28	RIC8A (RIC8 guanine nucleotide exchange factor A)	1.16	0.309	0.252
29	ZNF419 (zinc finger protein 419)	-0.0852	-0.414	0.0637
30	IRF2 (interferon regulatory factor 2)	0.336	-0.0552	0.299
31	DLEC1 (DLEC1 cilia and flagella associated protein)	-2.13	-1.45	0.355
32	LOC388220 (retired record)	-1.17	-1.21	-1.06
33	UPF3B (UPF3B regulator of nonsense mediated mRNA decay)	-0.337	-0.575	0.587
34	KIF6 (kinesin family member 6)	2.09	0.661	0.93
35	HDHD3 (haloacid dehalogenase like hydrolase domain containing 3)	1.72	1.64	1.66
36	SPON2 (spondin 2)	-0.678	-0.891	-0.37
37	SPSB4 (splA/ryanodine receptor domain and SOCS box containing 4)	-0.271	-0.208	0.822
38	GRM2 (glutamate metabotropic receptor 2)	-0.551	-1	-0.722
39	SLC37A4	-0.696	-0.471	-0.212
40	LOC389345 (retired record)	1.74	1.71	1.79
41	EPAS1 (endothelial PAS domain protein 1)	-0.541	0.199	0.0705
42	GNPTAB	0.851	1.23	1.79
43	ZNF570 (zinc finger protein 570)	-2.17 (active)	-2.23	-2.37
44	FANCA (FA complementation group A)	0.93	-0.399	0.485
45	ADNP2 (ADNP homeobox 2)	0.193	-2.19	-0.653
46	C4orf33 (chromosome 4 open reading frame 33)	-1.09	-1.36	-0.995
